No constants are given. Whether binding was seen depends on the method and setting. Some binding calls cover weakened binding; strength is not graded here.
Target: EphA4-Ligand Binding Domain (EphA4-LBD) (UniProt P54764)
Assay: X-ray crystal structure of the antibody A-Fab/EphA4-LBD complex purified by gel filtration

The chains behind the UniProt entries cited, without tags or fusion partners. Residues count along the entry.
UniProt P54764, residues 29-209: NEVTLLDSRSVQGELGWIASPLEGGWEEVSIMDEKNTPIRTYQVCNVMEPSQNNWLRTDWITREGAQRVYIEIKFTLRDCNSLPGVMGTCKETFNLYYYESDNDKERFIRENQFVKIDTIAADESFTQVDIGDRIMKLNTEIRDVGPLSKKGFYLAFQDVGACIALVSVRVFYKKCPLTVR

binding: binds
B1: antibody A-Fab (Fab, V domains shown, not shown: a dimerising Fc or GST)
VH: QVQLKQSGPSLVQPSQSLSITCTVSGFSLTRYGVHWVRQSPGKGLEWLGVIWRGGSTDYNAAFMSRLSITKDNSKSQVFFKMNSLQADDTAIYYCAKESLFGVYYDYGYYSMDYWGQGTSVTVSS
VL: DIQMTQSPSSLSASLGERVSLTCRASQEISGYLSWLQQKPDGTIKRLIYAASTLDSGVPKRFSGSRSGSDYSLTISSLESEDFADYYCLQYASYPLTFGAGTKLELKR
